These results are taken from publication doi:10.1101/2025.03.04.641389.

The test system of the series is SmExo (CBASS-associated DEDDh Exo) (Serratia marcescens). The series can be described thus: EMSA. The note with it: 2 uM Exo, with and/or without 2 uM 3',2'-cGAMP. Background: Mobility shift assays separate free from complexed probe on a gel.

The exact form of at least one protein or probe is not confirmed. No signal at the amounts used counts as a negative. At least one verdict rests on a figure or table, not on a statement of the authors.

“GCATAAACCTCATAATTAAAAATTTATCTAAGTCACTAACTC [42-nt ssDNA]”: the binding result was “no binding”.
